Measurements reported in patent US7084167B2, “Calcium receptor active molecules and method for preparing same” (Centre National de la Rechereche Scientifique (CNRS), priority 2000, dated 2006).
At least one read-out could not be matched to a standard name with certainty.

Molecular target: T1, CaSR (Rattus norvegicus, UniProt P48442)
T1 construct: expressed in transfected cells; host or cells: CHO (Chinese hamster ovary) cells, CHO(CaSR)
T1 sequence (P48442 20-1079): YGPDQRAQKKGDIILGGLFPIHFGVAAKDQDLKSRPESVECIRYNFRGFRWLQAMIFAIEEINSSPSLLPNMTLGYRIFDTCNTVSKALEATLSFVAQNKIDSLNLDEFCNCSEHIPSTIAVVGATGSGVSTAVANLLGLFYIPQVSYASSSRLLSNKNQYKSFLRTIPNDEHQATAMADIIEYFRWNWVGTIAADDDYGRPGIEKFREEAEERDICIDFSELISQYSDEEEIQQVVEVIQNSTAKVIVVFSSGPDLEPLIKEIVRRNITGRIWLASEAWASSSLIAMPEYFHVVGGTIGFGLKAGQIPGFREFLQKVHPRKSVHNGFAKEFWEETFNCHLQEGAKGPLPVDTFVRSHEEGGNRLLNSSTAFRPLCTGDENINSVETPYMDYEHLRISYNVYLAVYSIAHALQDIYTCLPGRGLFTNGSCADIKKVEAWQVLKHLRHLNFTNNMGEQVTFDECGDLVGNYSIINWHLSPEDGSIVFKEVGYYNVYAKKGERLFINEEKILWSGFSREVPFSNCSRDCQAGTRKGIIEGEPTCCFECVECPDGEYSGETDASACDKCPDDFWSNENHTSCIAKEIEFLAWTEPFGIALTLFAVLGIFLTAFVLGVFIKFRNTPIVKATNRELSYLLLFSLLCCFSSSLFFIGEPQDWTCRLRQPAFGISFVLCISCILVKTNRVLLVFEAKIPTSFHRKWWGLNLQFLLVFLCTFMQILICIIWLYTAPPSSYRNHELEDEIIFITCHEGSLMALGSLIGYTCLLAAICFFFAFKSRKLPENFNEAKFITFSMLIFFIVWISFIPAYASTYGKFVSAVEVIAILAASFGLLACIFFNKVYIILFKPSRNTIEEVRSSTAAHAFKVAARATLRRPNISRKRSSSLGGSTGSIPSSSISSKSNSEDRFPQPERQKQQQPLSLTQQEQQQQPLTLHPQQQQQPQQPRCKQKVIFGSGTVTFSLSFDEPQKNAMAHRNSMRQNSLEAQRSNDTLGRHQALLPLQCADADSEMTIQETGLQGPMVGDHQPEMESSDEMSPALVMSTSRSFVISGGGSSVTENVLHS
Assay: Accumulation of tritiated inositol phosphates in CHO(CaSR) cells
Format: cell-based
Settings: compound 10 μM, in the presence of 2 mM Ca2+
Description: The complementary DNA encoding rat CaSR has been isolated from a rat striatum cDNA library (Ruat et al, Proc. Natl. Acad. Sci., 1995). This receptor is identical, in terms of its amino acid sequence, to that expressed in the other tissues. Transfected Chinese hamster ovary (CHO) cells expressing rat CaSR (CHO(CaSR)) have been characterized and the chemical signals (second messengers) induced by activation of this receptor have been analyzed. Thus, a biochemical test for measuring the accumulation of tritiated inositol phosphates, [^3H]IPs, in response to activation of the receptor has been developed (Ruat et al, J. Biol. Chem., 1996; Ferry et al, Biochem. Biophys. Res. Common., 1997).
The calcimimetic activity of the compounds was estimated by measuring the accumulation of tritiated inositol phosphates, […] Ca^2+, in CHO(CaSR) cells (Ferry et al, Biochem Biophys Res Commun, 1997).
This activation was compared with that induced by the compound NPS-R-568, a reference calcimimetic used at a concentration of 10 μM (Table 1) (Ferry et al, Biochem Biophys Res Commun, 1997; Nemeth et al, Proc Natl Acad Sci USA, 1997).
The calcimimetic activity of the PHD/AK compounds is compared with that of a reference compound, NPS-R-568, used at the same concentration and under the same experimental conditions. This activity is expressed as a percentage of the activity of 10 mM of Ca^2+. The means±standard errors of the means of 2 to 5 independent manipulations are indicated. The experiments were carried out in the presence of 2 mM of Ca^2+.
The accumulation of tritiated inositol phosphates is expressed as a percentage of the basal level observed in the presence of 2 mM Ca^2+ (100%) in CHO (WT^+) or CHO(CaSR) cells.

Question: Which “Accumulation of (3H)-IP % of the 10 mM Ca2+ response ± S.E.” value does the source give for `CC(NCc1cc2ccccc2[nH]1)c1cccc2ccccc12.Cl.Cl` (stereo not drawn) [PHD 337] here?
Answer: The value was 103 ± 6%.

Question: With `COc1cccc([C@@H](C)NCc2cc3ccccc3[nH]2)c1` [PHD 356] as the compound, how does the “Accumulation of (3H)-IP % of the 10 mM Ca2+ response ± S.E.” value read?
Answer: The value was 105 ± 15%.

Question: `C[C@@H](NCc1cc2ccccc2[nH]1)c1cccc2ccccc12.Cl.Cl` [PHD 337-R, (R)-N-[(indole-2-yl)methyl]-N-[1-(1-naphthyl)ethyl]amine.HCl] was tested. Which “Accumulation of (3H)-IP % of the 10 mM Ca2+ response ± S.E.” value did it give?
Answer: Its value is 117 ± 5%.
